According to PMC6743784:
Results are given in words; binding and its absence hold for the method and conditions named. Binding seen in cells or lysates may run through a third protein. Some entries that bind do so weakly or less than the wild type.

Chains of the proteins cited; added tags and fusions are not shown.
UniProt Q9QR71: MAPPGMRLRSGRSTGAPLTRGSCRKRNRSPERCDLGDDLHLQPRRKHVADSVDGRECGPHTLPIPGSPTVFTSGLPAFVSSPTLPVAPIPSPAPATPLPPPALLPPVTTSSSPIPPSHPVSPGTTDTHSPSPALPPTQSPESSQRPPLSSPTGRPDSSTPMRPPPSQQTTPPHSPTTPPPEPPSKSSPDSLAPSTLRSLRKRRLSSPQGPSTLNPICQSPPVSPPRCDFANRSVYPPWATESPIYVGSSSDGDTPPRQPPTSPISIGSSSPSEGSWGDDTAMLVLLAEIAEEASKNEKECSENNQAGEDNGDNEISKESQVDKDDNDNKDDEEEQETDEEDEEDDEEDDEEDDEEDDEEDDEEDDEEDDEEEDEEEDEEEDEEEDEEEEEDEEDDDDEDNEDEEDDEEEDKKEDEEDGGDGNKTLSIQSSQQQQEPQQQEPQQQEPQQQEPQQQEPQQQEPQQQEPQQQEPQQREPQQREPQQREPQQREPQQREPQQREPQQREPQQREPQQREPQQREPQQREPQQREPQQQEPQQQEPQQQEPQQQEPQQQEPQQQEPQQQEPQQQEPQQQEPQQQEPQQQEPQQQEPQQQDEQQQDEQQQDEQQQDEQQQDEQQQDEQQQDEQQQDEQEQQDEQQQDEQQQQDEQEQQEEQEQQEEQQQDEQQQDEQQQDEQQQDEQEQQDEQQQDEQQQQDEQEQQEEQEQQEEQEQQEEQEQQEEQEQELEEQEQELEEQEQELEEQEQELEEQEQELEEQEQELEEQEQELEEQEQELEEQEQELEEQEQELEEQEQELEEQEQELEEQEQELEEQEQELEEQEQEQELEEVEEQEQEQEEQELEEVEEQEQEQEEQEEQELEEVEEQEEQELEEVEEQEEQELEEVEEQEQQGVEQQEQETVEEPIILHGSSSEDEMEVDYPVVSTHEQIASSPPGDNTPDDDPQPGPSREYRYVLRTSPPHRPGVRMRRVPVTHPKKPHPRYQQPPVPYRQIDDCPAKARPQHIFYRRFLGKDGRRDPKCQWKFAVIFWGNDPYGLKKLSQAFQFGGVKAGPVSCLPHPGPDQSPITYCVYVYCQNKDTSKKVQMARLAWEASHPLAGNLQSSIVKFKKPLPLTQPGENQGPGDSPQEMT
UniProt P09884: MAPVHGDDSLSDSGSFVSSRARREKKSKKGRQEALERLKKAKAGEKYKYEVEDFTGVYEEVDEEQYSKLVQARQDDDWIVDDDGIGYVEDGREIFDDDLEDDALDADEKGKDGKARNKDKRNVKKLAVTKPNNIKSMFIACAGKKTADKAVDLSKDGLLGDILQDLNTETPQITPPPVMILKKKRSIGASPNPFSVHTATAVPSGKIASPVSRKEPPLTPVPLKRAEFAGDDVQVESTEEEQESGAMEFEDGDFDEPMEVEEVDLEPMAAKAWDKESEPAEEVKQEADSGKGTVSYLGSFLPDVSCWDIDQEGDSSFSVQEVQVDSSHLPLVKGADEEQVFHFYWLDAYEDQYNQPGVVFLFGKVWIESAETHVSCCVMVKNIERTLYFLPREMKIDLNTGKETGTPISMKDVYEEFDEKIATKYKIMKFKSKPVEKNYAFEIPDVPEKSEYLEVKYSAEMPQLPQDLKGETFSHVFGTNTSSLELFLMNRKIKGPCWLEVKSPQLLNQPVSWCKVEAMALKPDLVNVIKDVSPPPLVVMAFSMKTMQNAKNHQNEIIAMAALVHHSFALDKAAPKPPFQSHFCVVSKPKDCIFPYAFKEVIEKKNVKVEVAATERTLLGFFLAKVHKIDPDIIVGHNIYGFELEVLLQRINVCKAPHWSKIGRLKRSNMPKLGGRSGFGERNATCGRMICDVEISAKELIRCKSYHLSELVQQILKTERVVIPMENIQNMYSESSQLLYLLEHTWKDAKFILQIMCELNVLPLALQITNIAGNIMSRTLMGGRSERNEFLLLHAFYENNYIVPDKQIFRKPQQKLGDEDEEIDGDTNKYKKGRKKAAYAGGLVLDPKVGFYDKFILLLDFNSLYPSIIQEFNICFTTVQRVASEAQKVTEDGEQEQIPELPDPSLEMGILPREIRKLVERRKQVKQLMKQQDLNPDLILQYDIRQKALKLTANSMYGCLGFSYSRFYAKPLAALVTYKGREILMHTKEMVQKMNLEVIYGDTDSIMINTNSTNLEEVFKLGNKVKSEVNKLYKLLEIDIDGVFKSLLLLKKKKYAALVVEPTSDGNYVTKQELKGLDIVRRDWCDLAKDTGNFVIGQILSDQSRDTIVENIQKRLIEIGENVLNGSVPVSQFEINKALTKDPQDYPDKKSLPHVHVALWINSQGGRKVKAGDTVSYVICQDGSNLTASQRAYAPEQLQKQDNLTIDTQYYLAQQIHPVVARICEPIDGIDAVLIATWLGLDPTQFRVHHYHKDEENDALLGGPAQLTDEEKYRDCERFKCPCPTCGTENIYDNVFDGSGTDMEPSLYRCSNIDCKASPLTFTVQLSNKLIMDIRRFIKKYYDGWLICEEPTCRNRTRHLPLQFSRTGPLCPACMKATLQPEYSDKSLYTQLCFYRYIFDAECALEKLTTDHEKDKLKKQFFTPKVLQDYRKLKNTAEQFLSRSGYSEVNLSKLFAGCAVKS

B1: minichromosomal maintenance protein MCM3 (protein, UniProt P25205 1-808)
chain: MAGTVVLDDVELREAQRDYLDFLDDEEDQGIYQSKVRELISDNQYRLIVNVNDLRRKNEKRANRLLNNAFEELVAFQRALKDFVASIDATYAKQYEEFYVGLEGSFGSKHVSPRTLTSCFLSCVVCVEGIVTKCSLVRPKVVRSVHYCPATKKTIERRYSDLTTLVAFPSSSVYPTKDEENNPLETEYGLSVYKDHQTITIQEMPEKAPAGQLPRSVDVILDDDLVDKAKPGDRVQVVGTYRCLPGKKGGYTSGTFRTVLIACNVKQMSKDAQPSFSAEDIAKIKKFSKTRSKDIFDQLAKSLAPSIHGHDYVKKAILCLLLGGVERDLENGSHIRGDINILLIGDPSVAKSQLLRYVLCTAPRAIPTTGRGSSGVGLTAAVTTDQETGERRLEAGAMVLADRGVVCIDEFDKMSDMDRTAIHEVMEQGRVTIAKAGIHARLNARCSVLAAANPVYGRYDQYKTPMENIGLQDSLLSRFDLLFIMLDQMDPEQDREISDHVLRMHRYRAPGEQDGDAMPLGSAVDILATDDPNFSQEDQQDTQIYEKHDNLLHGTKKKKEKMVSAAFMKKYIHVAKIIKPVLTQESATYIAEEYSRLRSQDSMSSDTARTSPVTARTLETLIRLATAHAKARMSKTVDLQDAEEAVELVQYAYFKKVLEKEKKRKKRSEDESETEDEEEKSQEDQEQKRKRRKTRQPDAKDGDSYDPYDFSDTEEEMPQVHTPKTADSQETKESQKVELSESRLKAFKVALLDVFREAHAQSIGMNRLTESINRDSEEPFSSVEIQAALSKMQDDNQVMVSEGIIFLI
B2: origin recognition complex protein ORC1 (protein, UniProt Q13415 1-861)
chain: MAHYPTRLKTRKTYSWVGRPLLDRKLHYQTYREMCVKTEGCSTEIHIQIGQFVLIEGDDDENPYVAKLLELFEDDSDPPPKKRARVQWFVRFCEVPACKRHLLGRKPGAQEIFWYDYPACDSNINAETIIGLVRVIPLAPKDVVPTNLKNEKTLFVKLSWNEKKFRPLSSELFAELNKPQESAAKCQKPVRAKSKSAESPSWTPAEHVAKRIESRHSASKSRQTPTHPLTPRARKRLELGNLGNPQMSQQTSCASLDSPGRIKRKVAFSEITSPSKRSQPDKLQTLSPALKAPEKTRETGLSYTEDDKKASPEHRIILRTRIAASKTIDIREERTLTPISGGQRSSVVPSVILKPENIKKRDAKEAKAQNEATSTPHRIRRKSSVLTMNRIRQQLRFLGNSKSDQEEKEILPAAEISDSSSDEEEASTPPLPRRAPRTVSRNLRSSLKSSLHTLTKVPKKSLKPRTPRCAAPQIRSRSLAAQEPASVLEEARLRLHVSAVPESLPCREQEFQDIYNFVESKLLDHTGGCMYISGVPGTGKTATVHEVIRCLQQAAQANDVPPFQYIEVNGMKLTEPHQVYVQILQKLTGQKATANHAAELLAKQFCTRGSPQETTVLLVDELDLLWTHKQDIMYNLFDWPTHKEARLVVLAIANTMDLPERIMMNRVSSRLGLTRMCFQPYTYSQLQQILRSRLKHLKAFEDDAIQLVARKVAALSGDARRCLDICRRATEICEFSQQKPDSPGLVTIAHSMEAVDEMFSSSYITAIKNSSVLEQSFLRAILAEFRRSGLEEATFQQIYSQHVALCRMEGLPYPTMSETMAVCSHLGSCRLLLVEPSRNDLLLRVRLNVSQDDVLYALKDE
B3: origin recognition complex protein ORC3 (protein, UniProt Q9UBD5 1-711)
chain: MATSSMSKGCFVFKPNSKKRKISLPIEDYFNKGKNEPEDSKLRFETYQLIWQQMKSENERLQEELNKNLFDNLIEFLQKSHSGFQKNSRDLGGQIKLREIPTAALVLGVNVTDHDLTFGSLTEALQNNVTPYVVSLQAKDCPDMKHFLQKLISQLMDCCVDIKSKEEESVHVTQRKTHYSMDSLSSWYMTVTQKTDPKMLSKKRTTSSQWQSPPVVVILKDMESFATKVLQDFIIISSQHLHEFPLILIFGIATSPIIIHRLLPHAVSSLLCIELFQSLSCKEHLTTVLDKLLLTTQFPFKINEKVLQVLTNIFLYHDFSVQNFIKGLQLSLLEHFYSQPLSVLCCNLPEAKRRINFLSNNQCENIRRLPSFRRYVEKQASEKQVALLTNERYLKEETQLLLENLHVYHMNYFLVLRCLHKFTSSLPKYPLGRQIRELYCTCLEKNIWDSEEYASVLQLLRMLAKDELMTILEKCFKVFKSYCENHLGSTAKRIEEFLAQFQSLDETKEEEDASGSQPKGLQKTDLYHLQKSLLEMKELRRSKKQTKFEVLRENVVNFIDCLVREYLLPPETQPLHEVVYFSAAHALREHLNAAPRIALHTALNNPYYYLKNEALKSEEGCIPNIAPDICIAYKLHLECSRLINLVDWSEAFATVVTAAEKMDANSATSEEMNEIIHARFIRAVSELELLGFIKPTKQKTDHVARLTWGGC

Each molecule was assayed against KSHV-encoded latency associated nuclear antigen (LANA), FLAG-tagged (KSHV (human herpesvirus 8)) (UniProt Q9QR71) (assay: co-IP; anti-FLAG immuno-precipitation from whole cell lysates of HEK293T cells expressing FLAG-LANA and grown under hypoxic conditions (1% O2); lysates pre-cleared, Protein Agarose A/G beads, washed 3 times with 1X PBS; western blot for endogenous proteins).

Molecule | binding
DNA polymerase 1 alpha (from UniProt P09884 1-1462) | binds
B1 | binds
B2 | binds
B3 | binds
